Results are given in words; binding and its absence hold for the method and conditions named. Binding seen in cells or lysates may run through a third protein. Here binding means that the protein was enriched with, or labelled near, the bait; the list need not be complete. For some of these results: Sequences can lack the tags named with a protein.
T1: FAM209-FLAG (family with sequence similarity 209, FLAG knock-in) (mouse (endogenous in testis)) (UniProt A2APA5)
T1 sequence: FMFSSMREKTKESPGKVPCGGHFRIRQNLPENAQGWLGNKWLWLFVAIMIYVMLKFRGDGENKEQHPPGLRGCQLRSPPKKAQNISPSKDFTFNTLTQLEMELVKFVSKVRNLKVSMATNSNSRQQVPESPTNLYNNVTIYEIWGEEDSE

Amino acid sequences for entries named in this document (tags omitted). Residues count along the entry.
UniProt P0CW70: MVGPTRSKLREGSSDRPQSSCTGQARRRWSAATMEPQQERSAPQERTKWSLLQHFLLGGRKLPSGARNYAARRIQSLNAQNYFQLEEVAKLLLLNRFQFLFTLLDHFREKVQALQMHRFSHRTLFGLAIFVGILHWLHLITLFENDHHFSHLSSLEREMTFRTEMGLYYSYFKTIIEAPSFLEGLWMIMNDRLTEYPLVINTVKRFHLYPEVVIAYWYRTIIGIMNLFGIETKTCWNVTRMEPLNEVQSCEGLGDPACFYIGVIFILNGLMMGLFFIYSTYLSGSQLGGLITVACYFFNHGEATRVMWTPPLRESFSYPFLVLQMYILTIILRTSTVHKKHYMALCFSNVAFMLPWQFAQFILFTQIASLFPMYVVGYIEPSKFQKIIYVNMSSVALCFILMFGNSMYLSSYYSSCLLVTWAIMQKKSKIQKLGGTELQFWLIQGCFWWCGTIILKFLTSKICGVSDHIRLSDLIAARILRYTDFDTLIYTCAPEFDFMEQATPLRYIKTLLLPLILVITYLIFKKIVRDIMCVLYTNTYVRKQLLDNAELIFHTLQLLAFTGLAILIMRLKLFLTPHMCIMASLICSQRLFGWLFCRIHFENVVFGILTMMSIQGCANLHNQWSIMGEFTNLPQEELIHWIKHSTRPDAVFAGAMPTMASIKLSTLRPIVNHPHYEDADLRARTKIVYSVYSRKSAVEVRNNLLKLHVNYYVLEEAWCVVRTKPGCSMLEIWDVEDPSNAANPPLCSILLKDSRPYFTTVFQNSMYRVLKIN
UniProt Q9D2F7, residues 33-1881: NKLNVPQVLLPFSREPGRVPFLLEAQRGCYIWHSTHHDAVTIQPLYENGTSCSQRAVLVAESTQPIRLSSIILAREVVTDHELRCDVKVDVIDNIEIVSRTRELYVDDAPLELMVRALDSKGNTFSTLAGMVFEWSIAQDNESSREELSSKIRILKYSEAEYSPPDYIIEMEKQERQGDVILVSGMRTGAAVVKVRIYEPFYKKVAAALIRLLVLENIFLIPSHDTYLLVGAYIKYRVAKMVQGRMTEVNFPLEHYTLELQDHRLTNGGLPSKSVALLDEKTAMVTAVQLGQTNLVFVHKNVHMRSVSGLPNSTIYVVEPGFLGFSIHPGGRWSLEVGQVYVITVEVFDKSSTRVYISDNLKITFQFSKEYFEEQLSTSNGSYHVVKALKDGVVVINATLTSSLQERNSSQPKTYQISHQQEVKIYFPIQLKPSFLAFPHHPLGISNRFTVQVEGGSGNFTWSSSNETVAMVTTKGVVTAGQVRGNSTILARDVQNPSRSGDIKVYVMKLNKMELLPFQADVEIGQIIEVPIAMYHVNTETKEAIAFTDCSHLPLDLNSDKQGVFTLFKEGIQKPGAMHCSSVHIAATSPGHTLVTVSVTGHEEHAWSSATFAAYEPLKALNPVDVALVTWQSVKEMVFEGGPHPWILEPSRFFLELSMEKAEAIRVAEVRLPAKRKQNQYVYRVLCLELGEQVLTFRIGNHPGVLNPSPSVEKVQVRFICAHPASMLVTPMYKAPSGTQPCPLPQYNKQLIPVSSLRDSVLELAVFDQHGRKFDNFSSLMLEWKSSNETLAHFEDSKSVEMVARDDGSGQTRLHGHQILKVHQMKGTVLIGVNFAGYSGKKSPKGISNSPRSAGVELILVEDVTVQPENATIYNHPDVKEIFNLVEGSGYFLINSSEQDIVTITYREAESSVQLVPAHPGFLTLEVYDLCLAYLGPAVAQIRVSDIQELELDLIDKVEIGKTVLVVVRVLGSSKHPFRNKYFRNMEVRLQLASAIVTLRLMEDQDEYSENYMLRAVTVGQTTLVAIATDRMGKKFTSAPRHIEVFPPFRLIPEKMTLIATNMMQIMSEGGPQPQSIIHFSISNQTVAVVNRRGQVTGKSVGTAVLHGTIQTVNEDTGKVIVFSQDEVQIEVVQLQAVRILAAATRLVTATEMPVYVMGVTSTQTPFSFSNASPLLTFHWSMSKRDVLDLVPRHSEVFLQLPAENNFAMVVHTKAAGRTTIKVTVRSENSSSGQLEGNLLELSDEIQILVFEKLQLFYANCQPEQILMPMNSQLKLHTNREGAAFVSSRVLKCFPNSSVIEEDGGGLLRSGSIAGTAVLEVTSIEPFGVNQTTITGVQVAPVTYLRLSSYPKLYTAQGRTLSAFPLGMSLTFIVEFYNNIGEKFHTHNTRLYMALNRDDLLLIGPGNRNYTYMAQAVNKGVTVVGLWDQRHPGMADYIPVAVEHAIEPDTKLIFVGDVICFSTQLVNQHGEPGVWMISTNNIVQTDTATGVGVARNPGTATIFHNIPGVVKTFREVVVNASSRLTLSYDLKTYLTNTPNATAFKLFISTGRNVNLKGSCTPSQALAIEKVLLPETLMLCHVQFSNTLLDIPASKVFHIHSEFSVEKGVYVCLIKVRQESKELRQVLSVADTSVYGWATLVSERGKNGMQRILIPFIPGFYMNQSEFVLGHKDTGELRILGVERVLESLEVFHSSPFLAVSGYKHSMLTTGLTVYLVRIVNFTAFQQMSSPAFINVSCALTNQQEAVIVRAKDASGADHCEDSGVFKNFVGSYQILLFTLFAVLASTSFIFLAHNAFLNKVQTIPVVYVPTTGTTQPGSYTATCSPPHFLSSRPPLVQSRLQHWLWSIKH
UniProt Q9Z2E9: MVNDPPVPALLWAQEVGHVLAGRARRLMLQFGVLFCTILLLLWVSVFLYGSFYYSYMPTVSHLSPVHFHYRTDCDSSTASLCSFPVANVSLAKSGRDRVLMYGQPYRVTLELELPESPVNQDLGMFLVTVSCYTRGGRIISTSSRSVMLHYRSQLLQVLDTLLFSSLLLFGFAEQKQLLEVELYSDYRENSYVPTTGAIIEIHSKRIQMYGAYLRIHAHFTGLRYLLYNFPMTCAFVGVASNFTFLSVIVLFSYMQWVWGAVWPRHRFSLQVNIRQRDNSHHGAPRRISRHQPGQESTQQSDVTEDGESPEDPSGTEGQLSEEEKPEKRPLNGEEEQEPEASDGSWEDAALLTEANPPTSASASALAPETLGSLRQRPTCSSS

B1: calmegin (CLGN) (protein, UniProt P52194 20-611)
chain: DFMDDGVEVEDFSENSDESNIKDEPSSGTFKYKTPQPIGEVYFTETFDSGNLAGWVLSKAKKDDMDSEIAIYDGRWEIEELKENQVPGDRGLVLKSKAKHHAIAAVLEKPFIFADKPLIVQYEVNFQDGIDCGGAYIKLLADTGDLILENFYDKTSYTIMFGPDKCGEDYKLHLIFRHKHPKTGVFEEKHAKPPDVDLKEFFTDRKTHLYTLVMNPDDTFEVLIDQKVVNQGTLLDDVVPPINPPREIDDPSDKKPEEWDDRAKIPDPTAVRPEDWDENEPAQIEDSSAVKPDGWLDDEPKFIPNPKAEKPEDWSDDMDGEWEAPHIPNPACQIGCGEWKPPMIDNPKYKGIWRPPMINNPNYQGLWSPQKIPNPDYFEDDHPFLLTSFSALGLELWSMTPDIYFDNFIICSEKEVADQWATDGWELKIMVANANEPGVLRQLVIAAEERPWLWLMYLVMAGLPVALVASFCWPRKVKKKYEDTGPKKTELCKLQSKAALEQEAEEEKAPEKPEDVQEEKKPGEAEVVTVEKEVIGEPEEKSKEDRETLEGQEEVSKLSKSGSEDEMKDADESPGSGDAPLKSLRKRRVRKD
B2: SPACA9 (protein, UniProt Q7TPM5 1-168)
chain: MNEVKESLRSIEQKYKLFQQQQFTFIAALEHCRENAHDKIRPISSIEQVQSYMEHYCNNSTHRRILIMFMDICSELSKLCQHFEALHSGTPVTNSLLEKCKTLVSQSNDLSSLRAKYPHEVVNHLSCDEARNHYGGVVSLIPIVLDFMKEWIAHSEKLPRKVLQHGTT
B3: E3 ubiquitin ligase TRIM69 (protein, UniProt Q80X56 1-500)
chain: MEVSSRPPSNFDPGNYVEMSDPTTTHLPSKVVIQDLTTELHCPLCNDWFRDPLMLTCGHNFCQDCIQSFWKVHSKETFCPDCKMLCQYSNCTFNLVLEKLVEKIKKLPLLKGHPQCPEHGENLKLFSKPEGKMICFQCKDARLSMGQSKDFLQISEAVRFFTEELAIYQSQLQTTLKELQSLRTIQKDAISAYKDNKIQLQQNLSLEFLKLHQFLHNKEKDILNDLRDEGKLLNEEMEVNLNQIQEQCLVAKDMLATIQARMEQQNSFDFLTDITKLIESMEKGMKTIVPRQLIAKKLSLGRFKGPIQYIIWKEMQAILSPGPSQLTLDPKTAHPNLVLSKSQTSVCHCDVKQVMPDDPERFDSSVAVLGSKGFTSGKWYWEIEVGKKTKWTIGVVRESIIRKGSCPLTPEQGFWLLRLRNQTDLKALDLPSRSLTLGDLRRVGVYLDYEGGQVSFYNATTMTHLYTFSSVFQEKLFPYLCPCLNDGGENKEPLHIVHPQ

Experiments:
[1] = molecular target: T1, FAM209-FLAG (family with sequence similarity 209, FLAG knock-in) (mouse (endogenous in testis)); experiment: affinity purification with mass spectrometry; anti-FLAG M2 resin with Fam209^Flag/Flag testis lysate, wild-type testis as control; CHAPS buffer (50 mM Tris pH 7.5, 150 mM NaCl, 1 mM DTT, 1% CHAPS), 1 h at 4°C; eluted with FLAG peptide; three independent IPs
[2] = molecular target: Probable C-mannosyltransferase DPY19L2 (mouse (endogenous in testis)) (UniProt P0CW70); experiment: affinity purification with mass spectrometry; anti-DPY19L2 conjugated to Protein A/G resin; testis lysates of Fam209^FLAG (FAM209 present) or Fam209^+1/+1 (FAM209 absent) mice, CHAPS buffer, 3 h at 4°C; eluted with IgG elution buffer

| Molecule | binding [1] | binding [2] |
| --- | --- | --- |
| Probable C-mannosyltransferase DPY19L2 (from UniProt P0CW70 1-773) | binds | – |
| nesprin-2 (SYNE2) (from UniProt Q6ZWQ0 1-6874) | binds | – |
| nuclear pore membrane glycoprotein 210-like (NUP210L) (from UniProt Q9D2F7 33-1881) | binds | – |
| seipin (BSCL2) (from UniProt Q9Z2E9 1-383) | binds | – |
| B1 | binds | – |
| B2 | – | binds |
| B3 | – | binds |
